# Laboratory results published in PubChem BioAssay AID280 (DTP/NCI, 2004).
# The list shows only some results of the screen, not a fair sample: it is rich in T/C values a quarter to a half above the control, in often repeated tests (any T/C) and in doses without a T/C. Further doses and runs are listed elsewhere. T/C is the treated group as % of the vehicle group. Some entries give survivors of the animals treated and no T/C: the source files T/C as zero there, which appears to mark a toxic dose or a test without result, not a measured value. Some doses without a T/C left all or most animals alive at the check, yet need not have been tolerated: survival well below the control is almost never listed, so the zero probably covers shortened survival too. Counts of survivors are from the toxicity check (mostly the fifth day) where no day follows; animals may have died later. Schedules are NCI's codes, taken here to give the interval after Q, in days (D) or hours (H), and the number of doses after X. Some entries hold several experiments; the results are listed from low to high. For survival time, this PubChem deposit counts one and a half times the control or more as active, and values a quarter to a half above the control carry no call in these data; other NCI protocols may use other cut-offs. Some T/C values are followed by the survivors on the day toxicity was checked, most often the fifth; without a count, all were alive then. Starred links: 1 amine or outer side, 2 acyl side, 3 side chain; linkers in the order of their positions; H or OH if unused. Positions of bridges follow the written chain, without caps; N, C: chain ends. Non-standard residues stand in square brackets, D forms with d. Residues, ends and D or L forms follow the SMILES beside them. Chains are numbered I, II in the order given. Actinocin(9to1) = Cc1c2oc3c(C)ccc(C(=O)[*:1])c3nc-2c(C(=O)[*:2])c(N)c1=O; aThr = C[C@H](O)[C@H](N)C(=O)O; NMeV = CN[C@H](C(=O)O)C(C)C; Sar = CNCC(=O)O
# System: nude mice, LOX melanoma ip, survival T/C
# Assay: NCI In Vivo Anticancer Drug Screen. Data for tumor model Human Amelanotic Melanoma (LOX) (intraperitoneal) in NU/NU BALB/C (nude) mice
# Conditions: T/C endpoint: median survival time, higher T/C = longer survival
# Experimental: The antitumor activity of compounds was measured in mice bearing transplantable tumors. Survival or tumor size were measured and the results are expressed as the measurement made in the treated group (T) divided by the measurement made in the vehicle treated control group (C). The tumor model used in this assay is Human Amelanotic Melanoma (LOX) (intraperitoneal) in NU/NU BALB/C (nude) mice
smiles,measurement,setting,value
O=[N+]([O-])c1ccc([I+]c2ccccc2)cc1,T/C,"dose: 18.75 mg/kg/injection, schedule: Q04DX003 (ip), vehicle: Klucel (hydroxypropylcellulose) (HPC)",144 % of control
same,T/C,"dose: 75.0 mg/kg/injection, schedule: Q04DX003 (ip), vehicle: Klucel (hydroxypropylcellulose) (HPC)",141 [5 of 6 alive on day 10] and 144 % of control [4 of 6 alive on day 10]
same,survivor count,"dose: 125.0 mg/kg/injection, schedule: Q04DX003 (ip), vehicle: Klucel (hydroxypropylcellulose) (HPC)",0 of 6 on day 10 and 1 of 6 on day 10
same,survivor count,"dose: 150.0 mg/kg/injection, schedule: Q04DX003 (ip), vehicle: Klucel (hydroxypropylcellulose) (HPC)",0 of 6 on day 10
same,survivor count,"dose: 208.0 mg/kg/injection, schedule: Q04DX003 (ip), vehicle: Klucel (hydroxypropylcellulose) (HPC)",1 of 6 on day 10
Oc1cccc2ccccc12,survivor count,"dose: 300.0 mg/kg/injection, schedule: Q04DX003 (ip), vehicle: water",2 of 6 on day 10
"Cc1c2oc3c(C)ccc(C(=O)N[C@@H]4C(=O)N[C@H](C(C)C)C(=O)N5CCC[C@H]5C(=O)N(C)CC(=O)N(C)[C@@H](C(C)C)C(=O)O[C@H]4C)c3nc-2c(C(=O)N[C@@H]2C(=O)N[C@H](C(C)C)C(=O)N3CCC[C@H]3C(=O)N(C)CC(=O)N(C)[C@@H](C(C)C)C(=O)O[C@H]2C)c(N)c1=O (I: [aThr][dV]P[Sar][NMeV] / II: [aThr][dV]P[Sar][NMeV]; ester I:1-I:C, II:1-II:C; linker I:N-II:N via Actinocin(9to1))",survivor count,"dose: 1.0 mg/kg/injection, schedule: Q04DX003 (ip), vehicle: saline",0 of 6 on day 10
same,survivor count,"dose: 2.0 mg/kg/injection, schedule: Q01DX001 (ip), vehicle: saline",0 of 6 on day 10
same,survivor count,"dose: 2.0 mg/kg/injection, schedule: Q04DX003 (ip), vehicle: saline",6 of 6 on day 14
same,survivor count,"dose: 3.0 mg/kg/injection, schedule: Q04DX003 (ip), vehicle: saline",6 of 6 on day 14
same,survivor count,"dose: 200.0 micrograms/kg/injection, schedule: Q01DX005 (ip), vehicle: saline",0 of 6 on day 10
same,survivor count,"dose: 200.0 micrograms/kg/injection, schedule: Q01DX015 (ip), vehicle: saline",1 of 5 on day 10
O=c1cc(-c2ccccc2)[nH]c2c1CCCC2,T/C,"dose: 1200.0 mg/kg/injection, schedule: Q04DX003 (ip), vehicle: saline with Tween-80, evaluated on day 46",127 % of control [4 of 6 alive on day 10]
same,T/C,"dose: 1200.0 mg/kg/injection, schedule: Q04DX003 (ip), vehicle: saline with Tween-80, evaluated on day 60",139 % of control
same,survivor count,"dose: 2000.0 mg/kg/injection, schedule: Q04DX003 (ip), vehicle: saline with Tween-80",4 of 6 on day 10
O=NNc1ccc(Cl)cn1,T/C,"dose: 12.5 mg/kg/injection, schedule: Q04DX003 (ip), vehicle: water",133 % of control
same,T/C,"dose: 25.0 mg/kg/injection, schedule: Q04DX003 (ip), vehicle: water",144 % of control
same,T/C,"dose: 40.0 mg/kg/injection, schedule: Q04DX003 (ip), vehicle: water",125 % of control
same,T/C,"dose: 50.0 mg/kg/injection, schedule: Q04DX003 (ip), vehicle: water",145 % of control
COc1cc2c(c(OC)c1OC)-c1ccc(OC)c(=O)cc1[C@@H](NC(C)=O)CC2,T/C,"dose: 0.13 mg/kg/injection, schedule: Q04DX003 (ip), vehicle: saline",131 % of control
same,survivor count,"dose: 4.0 mg/kg/injection, schedule: Q04DX003 (ip), vehicle: saline",1 of 6 on day 10
same,survivor count,"dose: 8.0 mg/kg/injection, schedule: Q04DX003 (ip), vehicle: saline",0 of 6 on day 10
C/C(=N\NC(=O)c1ccccc1O)c1cccc(/C(C)=N/NC(=O)c2ccccc2O)n1,T/C,"dose: 12.5 mg/kg/injection, schedule: Q04DX003 (ip), vehicle: saline",143 % of control
same,T/C,"dose: 25.0 mg/kg/injection, schedule: Q04DX003 (ip), vehicle: saline",127 % of control
same,survivor count,"dose: 200.0 mg/kg/injection, schedule: Q04DX003 (ip), vehicle: saline",6 of 6 on day 10
O=C(O)CCCc1ccc(N(CCCl)CCCl)cc1,survivor count,"dose: 0.13 mg/kg/injection, schedule: Q04DX003 (ip), vehicle: Klucel (hydroxypropylcellulose) (HPC)",6 of 6 on day 10
same,T/C,"dose: 12.0 mg/kg/injection, schedule: Q04DX003 (ip), vehicle: Klucel (hydroxypropylcellulose) (HPC)",138 and 146 % of control
same,T/C,"dose: 27.0 mg/kg/injection, schedule: Q01DX001 (ip), vehicle: Klucel (hydroxypropylcellulose) (HPC)",144 % of control
same,survivor count,"dose: 40.0 mg/kg/injection, schedule: Q04DX003 (ip), vehicle: Klucel (hydroxypropylcellulose) (HPC)",6 of 6 on day 14
